Measurements as given in article PMC12931196, “Vm–MSI: a Vancomycin–Antimicrobial Peptide Conjugate Combating Resistant Bacteria and Broadening the Antimicrobial Spectrum” (Advanced Science, 2025).

Tested on: VRSA 52
Assay: Mouse skin infection model
Format: in vivo, BALB/c mice
Settings: topical 2 mg kg^−1 ×3; observed to day 12

SMILES: O=C(O)c1cn(C2CC2)c2cc(N3CCNCC3)c(F)cc2c1=O [ciprofloxacin]
- skin wound healing: completely healed by 12 days post‐infection
